From PubChem BioAssay AID1471 (National Center for Advancing Translational Sciences (NCATS), 2008)
Several values for one entry are separate records, joined by “and”; a condition that tells them apart may be missing. Identical values can stand only once. About 310 (0.13%) of roughly 230,000 compounds were called active. This list was built around the results that the source calls inconclusive (neither active nor inactive); the mix of calls is not that of the screen. The call rests on the fitted dose curve; in most records, active means well fitted activation curve with a large enough effect; inconclusive means small, poorly fitted or top-dose-only effect; inactive means no such curve, though single readings can be large or run the other way. Potencies beside an inconclusive call are fits to weak or partial responses and may not hold up.

Experiment: qHTS Multiplex Assay to Identify Dual Action Probes in a Cell Model of Huntington: Cytoprotection (ATP); further: nearly all actives have a fitted effect of over 45% in size;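 on cytoprotection (ATP increase): toxic huntingtin expression switched on by the ecdysone agonist tebufenozide; % of control where 0% means no effect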
Conditions: PC12 HTT-Q103 induced, ATP luminescence, 40 h; cytoprotection (ATP increase): at 56.4 µM (top of the series) unless noted
Outline: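 Cells were plated at 1500 per well in phenol red-free DMEM with 5% equine and 5% calf serum. Tebufenozide (100 nM final) and compounds were added, then ATPlite reagent, and luminescence was read.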
Potency means the concentration at half of the fitted maximal effect.

SMILES | Potency | cytoprotection (ATP increase)
CN1CCC(=C2c3ccccc3CCc3sccc32)CC1 | inconclusive: 0.1 µM [activator, full curve, poor fit] | –
CCC(=O)N1CCc2cc(S(=O)(=O)CCC(=O)NCCC3=CCCCC3)ccc21 | inconclusive: 12.6 µM [activator, single point] | –
Cc1ccc2[nH]c3c(N4CCCCCC4)ncnc3c2c1 | – | inactive: 9.19% [at 1.9 µM]
O=C(O)C1CCc2sc3[nH]c(=S)n(-c4ccccc4)c(=O)c3c21 (stereo unspecified) | – | inactive: 0.131% [at 10 µM]
O=C(Cc1ccccc1)Nn1c(-c2ccccc2)nc2ccccc2c1=O | inconclusive: 1.26 µM [activator, single point] | –
COc1ccc(CNC(=O)CN(C(=O)c2ccc(CN3CCOCC3)o2)C2CCCC2)cc1 | – | inactive: -3.73% [at 10 µM]
O=C1CC(c2ccco2)Cc2nc(N3CCc4ccccc4C3)ncc21 (stereo unspecified) | inactive | –
O=C(CSc1nnc(-c2ccccc2)c2ccccc12)NCC1CCCO1 (stereo unspecified) | inconclusive: 14.1 µM [activator, single point] | –
Cc1cc(C)c(S(=O)(=O)N2CCCCCC2)cc1Br | inconclusive: 0.0071 µM [activator, full curve, poor fit] | –
CCC(=O)Nc1nnc(C)s1 | – | inactive: 11.9% [at 10 µM]
Clc1ccc(Nc2nc(NCCN3CCOCC3)nc(N3CCOCC3)n2)cc1 | inconclusive: 3.98 µM [activator, single point] | –
COC(=O)c1c(NC(=O)CCc2ccc(C)o2)sc(C)c1C | inconclusive: 35.5 µM [activator, single point] | –
N/C(=N\OC(=O)/C=C/c1ccccc1Cl)c1ccncc1 | inconclusive: 0.631 µM [activator, single point] | –
CC(C)n1nnnc1SCC(=O)N1CCN(C(=O)c2ccco2)CC1 | inconclusive: 3.98 µM [activator, partial curve] | –
Cc1nn(C(C)C(=O)NCc2ccco2)c(C)c1[N+](=O)[O-] (stereo unspecified) | inconclusive: 31.6 µM [activator, single point] | –
O=C1c2ccc(Oc3ccc([N+](=O)[O-])cc3)cc2C(=O)N1c1ccncc1 | inconclusive: 0.708 µM [activator, single point] | –
COc1ccc(NC(=S)N2CCCC2)cc1OC | inconclusive: 5.62 µM [activator, single point] | –
C=CC(=O)CC | inactive | –
CC(C)NC[C@H](O)COc1cccc2[nH]ccc12 | inconclusive: 0.1 µM [activator, full curve, poor fit] | –
S=C1SCN(Cc2cccnc2)CN1Cc1ccccc1 | inconclusive: 35.5 µM [activator, single point] | –
CCCOc1ccc(Cn2cnc3ccccc32)cc1 | inactive | –
O=C1c2ccccc2C(O)(Cc2ccccc2)N1C1CCCCC1 (stereo unspecified) | inactive | –
COc1cccc(C2SCC(=O)N2c2ccc(C)cc2)c1OC (stereo unspecified) | – | inactive: 19.9% [at 10 µM]
CC(C)(CO)NC(=O)C(c1ccccc1)c1ccccc1 | inconclusive: 3.55 µM [activator, partial curve] | –

SMILES | Potency | cytoprotection (ATP increase)
Cc1nc([N+](=O)[O-])cn1-c1nc2ccccn2c1[N+](=O)[O-] | inconclusive: 3.16 µM [activator, single point] | –
CCCCCCCCCCCCCC(=O)OC(C)C | inconclusive: 20 µM [activator, partial curve, poor fit] | –
COCCn1c(=O)[nH]c2cc(C(=O)NCc3ccccc3)ccc2c1=O | inconclusive: 0.562 µM [activator, single point] | –
COc1cccc(C2C(C)CCC3C(=O)N(C)C(C(C)C)C(=O)N32)c1 (stereo unspecified) | inconclusive: 0.398 µM [activator, full curve, poor fit] | –
CC(c1ccccc1)N1CCC(CNC(=S)Nc2cccc(Cl)c2)C1 (stereo unspecified) | inactive | –
COCCNC(=O)C(c1ccc(F)cc1)N(CCOC)C(=O)CCC(=O)Nc1nccs1 (stereo unspecified) | – | inactive: -20.9% [at 10 µM]
O=C(NC1CS(=O)(=O)CC1NCc1ccco1)c1ccccc1 (stereo unspecified) | inactive | –
Cc1ncc(COP(=O)(O)O)c(C=O)c1O | inconclusive: 5.01 µM [activator, full curve, poor fit] | –
O=C(NN=C1CCCCCCC1)C(=O)NC1CCCCC1 | inconclusive: 1.12 µM [activator, single point] | –
Cc1ccc2c(=O)c3ccccc3n(CCCN)c2c1C | inactive | –
CC(=O)Oc1ccc(C2(c3ccc(OC(C)=O)cc3)C(=O)Nc3ccccc32)cc1 | inconclusive: 89.1 nM [activator, full curve] and inconclusive: 3.55 µM [activator, single point] | –
CCCN=C(N)NCCC[C@H](N)C(=O)O | inconclusive: 1.26 µM [activator, single point] | –
N[C@H](CCC(=O)NCC(=O)O)C(=O)O | inconclusive: 0.794 µM [activator, single point] | –
COc1ccc(C(O)C2=CCCC2=O)cc1 (stereo unspecified) | inconclusive: 2.24 µM [activator, full curve] | –
Cc1cccc(NC(=O)CSc2nnnn2-c2ccc3c(c2)OCCO3)n1 | inconclusive: 3.16 µM [activator, single point] | –
Cc1c(C(=O)NC(C)C)sc2ncn(CC(=O)N3CCC(C)CC3)c(=O)c12 | inactive | –
CCC1(C)CC(c2nc(-c3ccc(OC)cc3)cs2)CCS1 (stereo unspecified) | – | inactive: -6.59% [at 10 µM]
COc1cc2c(cc1OC)-c1cc(OCc3cccnc3)nc(=O)n1CC2 | inconclusive: 1 µM [activator, single point] | –
Cc1ccc2[nH]c(C)cc(=S)c2c1 | inconclusive: 0.112 µM [activator, full curve, poor fit] | –
O=C(Cc1ccc(Cl)cc1)NNS(=O)(=O)c1ccc([N+](=O)[O-])cc1 | inconclusive: 5.62 µM [activator, single point] | –
O=C(CNS(=O)(=O)c1ccccc1)N1CCCC1 | inconclusive: 0.501 µM [activator, partial curve] | –
CCCCCOC(=O)c1ccc(NC(=O)c2ccco2)cc1 | inconclusive: 31.6 µM [activator, single point] | –
CC1(C)Cc2c(c(N3CCOCC3)nc3snc(N)c23)CO1 | inactive | –
CC(=O)Nc1ccc(Nc2nc(Cl)nc(Nc3ccc(NC(C)=O)cc3)n2)cc1 | – | inactive: 22.3% [at 10 µM]

SMILES | Potency | cytoprotection (ATP increase)
O=C(/C=C/c1ccccc1[N+](=O)[O-])N1CCCCC1 | inconclusive: 0.562 µM [activator, partial curve, poor fit] | –
O=C(Nc1cccnc1)c1ccc(Oc2ccccc2)cc1 | – | inactive: -2.48% [at 0.074 µM]
CC(C)CCn1c(SCc2ccc(Cl)cc2)nc2c1c(=O)[nH]c(=O)n2C | inactive | –
O=c1c2cn[nH]c2[nH]c(=S)n1-c1ccccc1 | – | inactive: -3.66% [at 1.9 µM]
S=C(NC1CCCC1)N1CCN(c2ccc(Cl)cc2)CC1 | – | inactive: -36.7% [at 1.9 µM]
Cc1ccc(NC(=S)N2CCC(c3nc4ccccc4s3)CC2)cc1 | inconclusive: 3.55 µM [activator, partial curve] | –
O=C(c1cc([N+](=O)[O-])ccc1Cl)N1CCN(c2ccc([N+](=O)[O-])cc2)CC1 | – | inactive: 21.3% [at 10 µM]
COc1ccc(Cc2n[nH]c(=S)n(N)c2=O)cc1 | inconclusive: 5.01 µM [activator, single point] | –
Cn1c(=O)c2c(nc(SCC(=O)c3ccccc3F)n2C)n(C)c1=O | – | inactive: -17.8% [at 10 µM]
CCOC(=O)c1c(NC(=O)CSc2ncnc3ccccc23)sc(C(C)=O)c1C | active: 2.51 µM | –
CCNC(=O)COC(=O)c1ccc(NS(=O)(=O)c2ccc3c(c2)OCCO3)cc1 | inconclusive: 11.2 µM [activator, single point] | –
Cc1ccc(NC(=O)C(Nc2ccccc2)c2ccccc2)cc1 (stereo unspecified) | – | inactive: -5.55% [at 10 µM]
CCNc1nc(NC(C)(C)C)nc(SCC(N)=O)n1 | inconclusive: 0.631 µM [activator, single point] | –
COC(=O)c1cc(C(=O)N2CCN(c3ccccc3OC)CC2)cc([N+](=O)[O-])c1 | inconclusive: 2.51 µM [activator, partial curve] | –
COc1ccc(N2CCN(C(=O)c3ccc(Cl)c(S(=O)(=O)N4CCCC4)c3)CC2)cc1 | inconclusive: 1 µM [activator, partial curve] | –
Cc1ccc(C)c(NC(=O)CCC(=O)N/N=C2/CC(=O)CC(C)(C)C2)c1 | inconclusive: 35.5 µM [activator, single point] | –
CN(C)c1ccc(C(=O)Nc2ccc(O)c3c(=O)cc(-c4ccccc4Cl)oc23)cc1 | inconclusive: 0.562 µM [activator, full curve, poor fit] | –
Cc1ccccc1C(OCCN(C)C)c1ccccc1 (stereo unspecified) | inconclusive: 35.5 µM [activator, single point] | –
Cc1c(I)c(=O)n(-c2ccccc2)n1C | inactive | –
Cc1ccc(-c2cnc(SCC(=O)N3CCCc4ccccc43)n2C)cc1 | inactive | –
NCCNS(=O)(=O)c1cccc2c(Cl)cccc12 | inconclusive: 0.794 µM [activator, single point] | –
CC(C)C[C@H]1C(=O)N2CCC[C@H]2[C@]2(O)O[C@](NC(=O)[C@@H]3C=C4c5cccc6[nH]c(Br)c(c56)C[C@H]4N(C)C3)(C(C)C)C(=O)N12 | inconclusive: 35.5 µM [activator, single point] | –
COC(=O)c1cccc(Nc2ncnc3ccc(C)cc23)c1 | inconclusive: 22.4 µM [activator, single point] | –
